Results from the supplement of paper PMC12067093, “Discovery and optimisation of a covalent ligand for TRIM25 and its application to targeted protein ubiquitination” (Chemical Science, 2025).
Some of the results follow.

By UniProt entry, the sequences of proteins in these tests, tags left out. Where a name states a change or a piece, a line headed by the entry shows the natural chain unless it says otherwise.
UniProt Q9Y487, whole entry, looked up: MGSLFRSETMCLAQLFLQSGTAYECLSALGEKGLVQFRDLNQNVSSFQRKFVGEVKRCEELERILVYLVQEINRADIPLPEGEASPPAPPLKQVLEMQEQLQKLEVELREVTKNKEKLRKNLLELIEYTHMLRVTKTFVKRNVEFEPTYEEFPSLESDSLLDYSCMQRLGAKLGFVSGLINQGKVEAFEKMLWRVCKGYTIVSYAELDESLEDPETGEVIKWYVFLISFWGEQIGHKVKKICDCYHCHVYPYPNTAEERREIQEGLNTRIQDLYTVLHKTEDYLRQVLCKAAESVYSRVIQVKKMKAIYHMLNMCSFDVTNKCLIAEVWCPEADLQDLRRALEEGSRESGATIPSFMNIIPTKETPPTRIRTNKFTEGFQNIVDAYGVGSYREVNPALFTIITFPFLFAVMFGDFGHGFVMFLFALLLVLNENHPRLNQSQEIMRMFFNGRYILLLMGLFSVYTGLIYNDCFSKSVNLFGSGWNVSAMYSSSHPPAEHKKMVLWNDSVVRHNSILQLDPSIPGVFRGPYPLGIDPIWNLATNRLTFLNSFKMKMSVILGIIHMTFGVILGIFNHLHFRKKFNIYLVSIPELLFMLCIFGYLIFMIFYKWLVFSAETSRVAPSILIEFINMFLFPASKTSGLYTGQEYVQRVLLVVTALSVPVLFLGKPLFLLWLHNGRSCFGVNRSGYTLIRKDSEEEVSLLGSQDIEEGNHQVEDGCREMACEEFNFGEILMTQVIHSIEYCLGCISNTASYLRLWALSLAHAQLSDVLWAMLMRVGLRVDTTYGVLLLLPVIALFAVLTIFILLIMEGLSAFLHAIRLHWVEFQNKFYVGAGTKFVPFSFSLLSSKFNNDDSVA
UniProt Q9HD20: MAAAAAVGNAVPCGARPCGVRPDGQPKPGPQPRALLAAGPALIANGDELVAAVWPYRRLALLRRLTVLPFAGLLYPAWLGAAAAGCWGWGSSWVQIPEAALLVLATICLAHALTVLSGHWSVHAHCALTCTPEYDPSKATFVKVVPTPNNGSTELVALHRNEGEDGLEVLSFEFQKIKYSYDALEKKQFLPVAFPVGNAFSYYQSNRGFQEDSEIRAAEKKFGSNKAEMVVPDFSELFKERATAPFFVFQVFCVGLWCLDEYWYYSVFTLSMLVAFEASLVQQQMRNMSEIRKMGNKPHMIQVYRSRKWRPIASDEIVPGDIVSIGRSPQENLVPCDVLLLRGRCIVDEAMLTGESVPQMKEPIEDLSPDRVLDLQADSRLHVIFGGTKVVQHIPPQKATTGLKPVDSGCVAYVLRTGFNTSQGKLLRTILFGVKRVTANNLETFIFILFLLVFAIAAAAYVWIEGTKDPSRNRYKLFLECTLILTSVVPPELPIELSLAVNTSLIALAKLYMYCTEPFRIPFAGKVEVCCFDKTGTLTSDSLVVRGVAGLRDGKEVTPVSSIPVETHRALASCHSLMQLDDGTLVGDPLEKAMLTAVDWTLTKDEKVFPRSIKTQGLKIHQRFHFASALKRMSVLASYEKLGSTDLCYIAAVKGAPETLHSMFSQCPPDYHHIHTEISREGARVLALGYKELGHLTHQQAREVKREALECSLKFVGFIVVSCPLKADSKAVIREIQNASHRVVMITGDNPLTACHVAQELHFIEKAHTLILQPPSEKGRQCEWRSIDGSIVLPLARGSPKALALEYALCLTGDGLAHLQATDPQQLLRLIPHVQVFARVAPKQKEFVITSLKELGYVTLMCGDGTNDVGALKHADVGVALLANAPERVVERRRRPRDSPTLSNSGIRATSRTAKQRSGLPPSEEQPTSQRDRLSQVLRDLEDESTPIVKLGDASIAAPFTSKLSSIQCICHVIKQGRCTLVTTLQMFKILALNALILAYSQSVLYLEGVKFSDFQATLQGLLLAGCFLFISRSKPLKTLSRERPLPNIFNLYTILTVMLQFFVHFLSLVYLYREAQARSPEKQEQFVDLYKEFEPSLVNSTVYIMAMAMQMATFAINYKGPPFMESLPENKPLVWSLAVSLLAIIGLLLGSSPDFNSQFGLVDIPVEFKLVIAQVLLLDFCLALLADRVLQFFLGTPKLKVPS
UniProt Q9BZE9, whole entry, looked up: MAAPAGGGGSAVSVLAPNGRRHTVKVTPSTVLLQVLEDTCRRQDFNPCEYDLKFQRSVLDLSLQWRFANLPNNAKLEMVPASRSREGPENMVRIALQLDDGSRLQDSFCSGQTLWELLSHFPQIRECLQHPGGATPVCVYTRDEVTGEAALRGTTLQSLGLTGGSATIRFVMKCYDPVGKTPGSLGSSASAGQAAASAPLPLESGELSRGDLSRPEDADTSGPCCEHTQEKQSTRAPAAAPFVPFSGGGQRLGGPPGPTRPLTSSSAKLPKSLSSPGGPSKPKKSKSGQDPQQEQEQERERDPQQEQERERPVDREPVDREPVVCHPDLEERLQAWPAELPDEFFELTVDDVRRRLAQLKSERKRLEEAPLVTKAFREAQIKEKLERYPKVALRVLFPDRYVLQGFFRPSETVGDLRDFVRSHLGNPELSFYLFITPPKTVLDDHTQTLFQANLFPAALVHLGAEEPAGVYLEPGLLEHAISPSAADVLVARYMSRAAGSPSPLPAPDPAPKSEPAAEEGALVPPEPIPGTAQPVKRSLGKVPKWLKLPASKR
UniProt Q99766: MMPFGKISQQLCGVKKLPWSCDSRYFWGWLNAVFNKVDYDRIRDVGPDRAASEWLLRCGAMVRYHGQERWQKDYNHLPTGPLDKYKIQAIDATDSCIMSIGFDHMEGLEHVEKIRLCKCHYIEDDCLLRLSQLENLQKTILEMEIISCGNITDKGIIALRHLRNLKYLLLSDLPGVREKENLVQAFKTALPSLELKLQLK
UniProt P23634: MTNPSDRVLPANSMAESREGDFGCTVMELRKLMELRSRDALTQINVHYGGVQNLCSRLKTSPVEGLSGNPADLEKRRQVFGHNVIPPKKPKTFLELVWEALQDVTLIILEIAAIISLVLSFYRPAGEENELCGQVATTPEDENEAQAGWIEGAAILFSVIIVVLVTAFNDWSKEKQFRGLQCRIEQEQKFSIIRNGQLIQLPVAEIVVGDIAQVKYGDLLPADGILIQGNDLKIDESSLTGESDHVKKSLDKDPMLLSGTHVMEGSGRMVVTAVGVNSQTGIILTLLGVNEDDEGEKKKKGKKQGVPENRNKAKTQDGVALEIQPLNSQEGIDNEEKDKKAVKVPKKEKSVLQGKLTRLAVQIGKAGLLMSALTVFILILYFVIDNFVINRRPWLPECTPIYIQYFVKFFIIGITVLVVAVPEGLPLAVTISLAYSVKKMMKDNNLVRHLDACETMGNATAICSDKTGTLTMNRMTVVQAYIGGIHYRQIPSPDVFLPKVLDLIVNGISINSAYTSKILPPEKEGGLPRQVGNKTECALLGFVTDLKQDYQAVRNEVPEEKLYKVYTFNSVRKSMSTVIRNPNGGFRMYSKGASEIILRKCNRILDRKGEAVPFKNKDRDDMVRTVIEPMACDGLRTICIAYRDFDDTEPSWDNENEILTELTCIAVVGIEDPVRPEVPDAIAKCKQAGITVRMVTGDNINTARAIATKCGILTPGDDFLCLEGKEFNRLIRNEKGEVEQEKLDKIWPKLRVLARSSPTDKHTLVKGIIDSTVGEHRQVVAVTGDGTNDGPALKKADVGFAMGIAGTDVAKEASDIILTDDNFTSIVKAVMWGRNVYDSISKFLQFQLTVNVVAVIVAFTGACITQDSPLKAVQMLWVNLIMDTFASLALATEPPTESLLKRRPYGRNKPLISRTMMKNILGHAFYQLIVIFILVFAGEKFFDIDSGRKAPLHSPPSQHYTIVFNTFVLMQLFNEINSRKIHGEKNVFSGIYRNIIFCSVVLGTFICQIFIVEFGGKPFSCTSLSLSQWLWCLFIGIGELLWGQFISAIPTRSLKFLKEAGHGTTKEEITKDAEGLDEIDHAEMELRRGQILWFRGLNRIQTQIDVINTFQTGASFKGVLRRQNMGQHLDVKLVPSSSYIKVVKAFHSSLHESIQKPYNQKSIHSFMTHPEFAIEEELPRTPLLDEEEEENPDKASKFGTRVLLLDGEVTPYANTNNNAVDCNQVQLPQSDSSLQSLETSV
UniProt P46100: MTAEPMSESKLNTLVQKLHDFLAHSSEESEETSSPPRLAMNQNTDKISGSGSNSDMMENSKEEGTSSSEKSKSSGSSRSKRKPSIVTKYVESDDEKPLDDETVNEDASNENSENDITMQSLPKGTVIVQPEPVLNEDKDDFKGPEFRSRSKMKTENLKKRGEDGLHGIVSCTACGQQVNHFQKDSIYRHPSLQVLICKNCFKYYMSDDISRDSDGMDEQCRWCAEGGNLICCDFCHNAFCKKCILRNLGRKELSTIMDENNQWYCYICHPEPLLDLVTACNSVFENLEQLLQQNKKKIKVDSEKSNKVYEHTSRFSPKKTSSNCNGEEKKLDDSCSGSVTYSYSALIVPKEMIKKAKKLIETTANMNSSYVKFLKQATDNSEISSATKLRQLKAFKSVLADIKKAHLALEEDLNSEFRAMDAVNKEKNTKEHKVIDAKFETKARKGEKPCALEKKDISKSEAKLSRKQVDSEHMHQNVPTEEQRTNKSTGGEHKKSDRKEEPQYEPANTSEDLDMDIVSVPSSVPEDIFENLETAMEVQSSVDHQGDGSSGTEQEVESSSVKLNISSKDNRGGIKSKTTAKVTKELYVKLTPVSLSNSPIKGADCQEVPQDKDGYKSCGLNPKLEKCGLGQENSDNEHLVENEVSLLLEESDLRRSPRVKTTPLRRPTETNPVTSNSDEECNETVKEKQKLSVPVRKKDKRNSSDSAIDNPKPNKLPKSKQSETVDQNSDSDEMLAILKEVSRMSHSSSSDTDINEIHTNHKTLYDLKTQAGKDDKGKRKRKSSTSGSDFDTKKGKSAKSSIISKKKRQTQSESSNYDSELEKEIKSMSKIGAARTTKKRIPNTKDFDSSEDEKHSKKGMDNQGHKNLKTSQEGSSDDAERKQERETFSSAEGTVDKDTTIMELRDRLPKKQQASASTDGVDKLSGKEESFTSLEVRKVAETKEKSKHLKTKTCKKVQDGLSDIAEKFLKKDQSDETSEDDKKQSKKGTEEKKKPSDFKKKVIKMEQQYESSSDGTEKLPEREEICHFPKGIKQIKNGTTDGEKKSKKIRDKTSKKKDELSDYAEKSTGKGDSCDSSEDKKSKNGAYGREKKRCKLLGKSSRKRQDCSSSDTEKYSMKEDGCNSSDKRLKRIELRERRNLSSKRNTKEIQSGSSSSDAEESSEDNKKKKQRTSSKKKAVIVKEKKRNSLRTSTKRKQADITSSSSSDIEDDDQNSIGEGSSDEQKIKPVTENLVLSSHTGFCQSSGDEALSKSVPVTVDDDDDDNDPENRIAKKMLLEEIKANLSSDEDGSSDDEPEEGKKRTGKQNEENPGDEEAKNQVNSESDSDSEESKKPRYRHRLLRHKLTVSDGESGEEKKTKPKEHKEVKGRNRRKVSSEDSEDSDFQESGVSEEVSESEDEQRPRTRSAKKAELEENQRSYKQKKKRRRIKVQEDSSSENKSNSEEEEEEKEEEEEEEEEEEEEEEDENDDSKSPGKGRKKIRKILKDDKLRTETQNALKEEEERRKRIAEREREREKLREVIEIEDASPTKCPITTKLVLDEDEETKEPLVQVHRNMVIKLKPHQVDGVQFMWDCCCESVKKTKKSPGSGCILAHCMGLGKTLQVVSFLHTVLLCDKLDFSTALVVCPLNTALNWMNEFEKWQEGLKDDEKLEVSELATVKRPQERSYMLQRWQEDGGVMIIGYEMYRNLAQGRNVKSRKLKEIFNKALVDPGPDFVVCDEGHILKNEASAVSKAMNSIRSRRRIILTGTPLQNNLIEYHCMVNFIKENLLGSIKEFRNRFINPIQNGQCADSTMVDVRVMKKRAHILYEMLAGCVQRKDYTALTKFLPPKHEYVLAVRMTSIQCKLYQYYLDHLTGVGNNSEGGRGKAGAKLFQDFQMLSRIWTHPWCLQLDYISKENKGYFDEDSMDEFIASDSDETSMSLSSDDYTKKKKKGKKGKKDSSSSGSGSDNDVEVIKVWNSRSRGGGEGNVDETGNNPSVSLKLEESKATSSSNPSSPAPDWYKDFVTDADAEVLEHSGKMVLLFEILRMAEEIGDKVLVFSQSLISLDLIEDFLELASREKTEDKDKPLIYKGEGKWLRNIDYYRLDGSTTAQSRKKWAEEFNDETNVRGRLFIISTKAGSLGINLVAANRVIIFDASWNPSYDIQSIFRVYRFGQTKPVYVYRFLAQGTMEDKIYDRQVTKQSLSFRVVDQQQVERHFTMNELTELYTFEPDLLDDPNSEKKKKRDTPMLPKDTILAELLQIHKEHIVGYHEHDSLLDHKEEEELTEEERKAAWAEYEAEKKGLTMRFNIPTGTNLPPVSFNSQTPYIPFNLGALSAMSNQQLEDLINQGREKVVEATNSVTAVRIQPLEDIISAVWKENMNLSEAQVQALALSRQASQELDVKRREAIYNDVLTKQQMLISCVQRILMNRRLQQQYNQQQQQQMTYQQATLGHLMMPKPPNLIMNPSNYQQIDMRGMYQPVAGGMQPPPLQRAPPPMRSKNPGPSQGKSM

Compound: CC1Cc2ccccc2N1C(=O)C1CCCN(C1)C(=O)CCl (mixture of isomers) [TRIM25 ligand 11 (diastereomer mixture)]
Test: probe-labelled cysteine peptide fold change vs DMSO (competition) (log2 fold change); higher = less target engagement (more negative = stronger competition)
Settings: THP-1, incubation time: 4 h
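Note: competitive chemoproteomic profiling in live THP-1 cells with an iodoacetamide desthiobiotin (IA-DTB) probe, comparing probe-labelled peptide intensities in compound-treated cells against DMSO-treated controls.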

| Target | probe-labelled cysteine peptide fold change (10 µM) | probe-labelled cysteine peptide fold change (50 µM) |
| --- | --- | --- |
| ATM_Q13315_2753_LTICTYK (UniProt Q13315) | 0.00389 | 0.0732 |
| ATG4C_Q96DT6_367_DFPLETFHCPSPK (UniProt Q96DT6) | 0.0101 | 0.0834 |
| ATP11B_Q9Y2G3_170_LDGSCHVTTASLDGETNLK (UniProt Q9Y2G3) | -0.0312 | -0.197 |
| ATP6V0A2_Q9Y487_244_ICDCYHCHVYPYPNTAEER (UniProt Q9Y487) | 0.131 | 0.198 |
| ASCC3_Q8N3C0_742_NCGHIPFFFPTQGHDYVLAEK (UniProt Q8N3C0) | 0.126 | 0.283 |
| ATG16L1_Q676U5_533_CGSDWTR (UniProt Q676U5) | 0.0178 | 0.0689 |
| ATL2_Q8NHH9_59_KPCPVQIVLAHEDDHNFELDEEALEQILLQEHIR (UniProt Q8NHH9) | 0.102 | -0.12 |
| ATM_Q13315_2112_NMQWDHCTSVSK (UniProt Q13315) | -0.0329 | -0.222 |
| ATG5_Q9H1Y0_115_DLLHCPSK (UniProt Q9H1Y0) | -0.0506 | – |
| ATAD2_Q6PL18_1057_DIDLICSNALEYNPDRDPGDR (UniProt Q6PL18) | 0.101 | -0.0131 |
| ATP13A1_Q9HD20_755_VVMITGDNPLTACHVAQELHFIEK (UniProt Q9HD20) | 0.203 | 0.0608 |
| ATOX1_O00244_41_KVCIESEHSMDTLLATLK (UniProt O00244) | -0.0277 | -0.224 |
| ASPSCR1_Q9BZE9_109_LQDSFCSGQTLWELLSHFPQIR (UniProt Q9BZE9) | 0.0218 | -0.00341 |
| ATP5S_Q99766_111_IQAIDATDSCIMSIGFDHMEGLEHVEK (UniProt Q99766) | -0.0321 | -0.172 |
| ASPSCR1_Q9BZE9_224+225_GDLSRPEDADTSGPCCEHTQEK (UniProt Q9BZE9) | -0.0438 | -0.488 |
| ATP2B4_P23634_24_EGDFGCTVMELRK (UniProt P23634) | -0.361 | -0.428 |
| ASCC3_Q8N3C0_366_KAGEDLEVSEGLMCFDPK (UniProt Q8N3C0) | -0.033 | -0.248 |
| ATG4B_Q9Y4P1_323_MSIAELDPSIAVGFFCK (UniProt Q9Y4P1) | -0.107 | 0.00193 |
| ATP13A1_Q9HD20_574_ALASCHSLMQLDDGTLVGDPLEK (UniProt Q9HD20) | 0.26 | -0.189 |
| ASPSCR1_Q9BZE9_127+138_ECLQHPGGATPVCVYTR (UniProt Q9BZE9) | 0.0385 | 0.00452 |
| ATM_Q13315_2753_KLTICTYK (UniProt Q13315) | -0.16 | -0.13 |

| Target | probe-labelled cysteine peptide fold change (10 µM) | probe-labelled cysteine peptide fold change (50 µM) |
| --- | --- | --- |
| ATP1A1_P05023_249_NIAFFSTNCVEGTAR (UniProt P05023) | -0.0568 | -0.0911 |
| ATP5PO_P48047_141_GEVPCTVTSASPLEEATLSELK (UniProt P48047) | 0.163 | 0.0371 |
| ASH2L_Q9UBL3_362_LELDCWAGKPIPGDLYR (UniProt Q9UBL3) | 0.0773 | 0.173 |
| ATIC_P31939_363_KKNGNYCVLQMDQSYKPDENEVR (UniProt P31939) | 0.0376 | 0.0796 |
| ARV1_Q9H2C2_37_CIECNQEAK (UniProt Q9H2C2) | 0.0273 | 0.199 |
| ATP5PD_O75947_101_SCAEWVSLSK (UniProt O75947) | -0.282 | -0.438 |
| ARSB_P15848_121_TGLQHQIIWPCQPSCVPLDEK (UniProt P15848) | 0.262 | 0.383 |
| ATP2B4_P23634_537_TECALLGFVTDLK (UniProt P23634) | -0.034 | -0.163 |
| ATP6V0A1_Q93050_247_ASLYPCPETPQER (UniProt Q93050) | 0.00995 | 0.00784 |
| ASH1L_Q9NR48_157_KADDVAAIECQSEEVIR (UniProt Q9NR48) | -0.205 | -0.438 |
| ARPC1B_O15143_342_CSQFCTTGMDGGMSIWDVK (UniProt O15143) | 0.0489 | -0.0336 |
| ARPC1B_O15143_26_TQIAICPNNHEVHIYEK (UniProt O15143) | 0.062 | 0.00851 |
| ATP13A1_Q9HD20_969+971_LSSIQCICHVIK (UniProt Q9HD20) | -0.175 | 0.152 |
| ATP6V0D1_P61421_335_NIVWIAECIAQR (UniProt P61421) | 0.0847 | 0.315 |
| ARPC2_O15144_120_RNCFASVFEK (UniProt O15144) | -0.0324 | -0.0758 |
| ATP2A2_P16615_364_TGTLTTNQMSVCR (UniProt P16615) | -0.0905 | 0.0925 |
| ASCC3_Q8N3C0_1283_WLGAEAVCIINFQHLILPER (UniProt Q8N3C0) | -0.0153 | 0.0434 |
| ATIC_P31939_575_VVIEACDELGIILAHTNLR (UniProt P31939) | 0.0127 | 0.0172 |
| ATP2B4_P23634_632_TVIEPMACDGLR (UniProt P23634) | -0.1 | -0.201 |
| ATP6V0A1_Q93050_310_AIYHTLNLCNIDVTQK (UniProt Q93050) | 0.176 | 0.149 |
| ASCC3_Q8N3C0_1535_QMGLFNFRPSVRPVPLEVHIQGFPGQHYCPR (UniProt Q8N3C0) | 0.117 | -0.0767 |

| Target | probe-labelled cysteine peptide fold change (10 µM) | probe-labelled cysteine peptide fold change (50 µM) |
| --- | --- | --- |
| ATG9A_Q7Z3C6_331_CWSLYGR (UniProt Q7Z3C6) | 0.00962 | 0.0279 |
| ATP2B1_P20020_463+473_HLDACETMGNATAICSDK (UniProt P20020) | 0.274 | -0.133 |
| ATM_Q13315_2770_SGVLEWCTGTVPIGEFLVNNEDGAHKR (UniProt Q13315) | -0.159 | 0.0356 |
| ATM_Q13315_790_CLSNCTK (UniProt Q13315) | 0.0195 | 0.0568 |
| ATP6V0A2_Q9Y487_330_CLIAEVWCPEADLQDLRR (UniProt Q9Y487) | -0.0765 | 0.0285 |
| ATRX_P46100_1026_MEQQYESSSDGTEKLPEREEICHFPK (UniProt P46100) | -0.145 | -0.342 |
| ASPSCR1_Q9BZE9_127_ECLQHPGGATPVCVYTR (UniProt Q9BZE9) | 0.0747 | 0.143 |
| ATP13A1_Q9HD20_667_GAPETLHSMFSQCPPDYHHIHTEISR (UniProt Q9HD20) | -0.044 | 0.0515 |
| ASAP1_Q9ULH1_373_LNLLTCQVKPNAEDKK (UniProt Q9ULH1) | -0.0328 | -0.0217 |
| ATG12_O94817_134_LVLHYCK (UniProt O94817) | 0.159 | 0.17 |
| ATP5S_Q99766_134_CHYIEDDCLLR (UniProt Q99766) | -0.0886 | 0.0874 |
| ATP13A1_Q9HD20_971_LSSIQCICHVIK (UniProt Q9HD20) | -0.0776 | 0.0157 |
| ASMTL_O95671_305_GLLTACK (UniProt O95671) | -0.0323 | -0.0143 |
| ATP2A2_P16615_471_ANACNSVIK (UniProt P16615) | -0.15 | -0.036 |
| ATRAID_Q6UW56_52_VAFYCK (UniProt Q6UW56) | 0.0122 | 0.0598 |
| ATP13A3_Q9H7F0_545_SQFVACMATCHSLTK (UniProt Q9H7F0) | 0.00992 | 0.0114 |
| ATRX_P46100_1575_LKPHQVDGVQFMWDCCCESVKK (UniProt P46100) | -0.22 | -0.111 |
| ATL2_Q8NHH9_441_MGGDEFCR (UniProt Q8NHH9) | 0.0643 | 0.0457 |
| ASNA1_O43681_289_IDTHNIIVNQLVFPDPEKPCK (UniProt O43681) | -0.0273 | 0.107 |
| ATIC_P31939_101_VVACNLYPFVK (UniProt P31939) | -0.0132 | 0.0726 |
| ASPHD2_Q6ICH7_200_NFQTILCEFETLYK (UniProt Q6ICH7) | -0.104 | -0.222 |

| Target | probe-labelled cysteine peptide fold change (10 µM) | probe-labelled cysteine peptide fold change (50 µM) |
| --- | --- | --- |
| ASPSCR1_Q9BZE9_40_VTPSTVLLQVLEDTCR (UniProt Q9BZE9) | 0.121 | -0.1 |
| ATM_Q13315_2991_ALYLQQRPEDETELHPTLNADDQECK (UniProt Q13315) | 0.0559 | -0.197 |
| ARRB2_P32121_126_LGQHAHPFFFTIPQNLPCSVTLQPGPEDTGK (UniProt P32121) | 0.104 | 0.102 |
| ARSB_P15848_405_IELLHNIDPNFVDSSPCPR (UniProt P15848) | -0.286 | -0.334 |
| ATAD1_Q8NBU5_229_AQFMSLWDGLDTDHSCQVIVMGATNRPQDLDSAIMR (UniProt Q8NBU5) | -0.043 | -0.0993 |
| ATP6V1A_P38606_254_VLDALFPCVQGGTTAIPGAFGCGK (UniProt P38606) | 0.238 | 0.203 |
| ATL3_Q6DD88_262_NHIHSCFSDVTCFLLPHPGLQVATSPDFDGK (UniProt Q6DD88) | 0.0291 | 0.0346 |
| ATPAF1_Q5TC12_321_CAQNQNKT (UniProt Q5TC12) | -0.189 | -0.217 |
| ATP6V1G1_O75348_104_DEVLDNLLAFVCDIRPEIHENYR (UniProt O75348) | 0.164 | -0.0814 |
| ATM_Q13315_755_SLMQCAGESITLFK (UniProt Q13315) | 0.103 | 0.136 |
| ATP5F1C_P36542_103_GLCGAIHSSIAK (UniProt P36542) | 0.234 | -0.228 |
| ASB3_Q9Y575_295_VSPVYSAVFGGHEDCLEILLR (UniProt Q9Y575) | 0.121 | 0.0802 |
| ATP1B1_P05026_126_DSAQRDDMIFEDCGDVPSEPK (UniProt P05026) | -0.147 | -0.244 |
| ATP2A2_P16615_377_MFILDRVEGDTCSLNEFTITGSTYAPIGEVHK (UniProt P16615) | 0.24 | 0.0756 |
| ATAD2_Q6PL18_649_SICAEAALCALR (UniProt Q6PL18) | -0.00173 | 0.0507 |
| ASPM_Q8IZT6_51_SPFLCFGDVLLGASR (UniProt Q8IZT6) | 0.0183 | 0.0584 |
| ASNA1_O43681_53_TTCSCSLAVQLSK (UniProt O43681) | -0.0478 | 0.0315 |
| ATAD2_Q6PL18_785_NACYQPMSFRPR (UniProt Q6PL18) | -0.109 | -0.0934 |
| ATP2B1_P20020_547_TECALLGLLLDLKR (UniProt P20020) | -0.0804 | -0.286 |
